In patent publication US7319000B1, “Compositions and methods for eliciting immune or anti-infective responses” (priority 1992, dated 2008):
Some entries share one result that the patent states for a list of compounds. For at least one compound, name, drawing or mass did not settle the structure. Ends that are not written are not given here.

System: HIV-1 infection of primary human T cells
Assay: HIV-1 infection of primary human T cells, reverse transcriptase assay
Assay type: cell-based
Details: peptide at 1 μg/ml; IIIB strain; RT activity after 9 days; FIG. 8

TKGPGRVIYATGQ [Peptide T13Q]
inhibition of HIV-1 infection of primary human T cells: > 60%
